This data set is described as follows: Solubility of sirolimus in the coating solvent cyclohexane (slurry preparation, Example 1). It is filed as physicochemical. The note with it: cyclohexane with dissolved petroleum jelly; 25 mg ground sirolimus (<40 μm) in 5 ml. As to the method: 75 mg of petroleum jelly was dissolved in 5 ml of cyclohexane. 25 mg of sirolimus that was ground to the selected size range of <40 μm), and then added to the solution. […] The ratio of drug to petroleum jelly was 1:3 and the coating solution concentration is 5 mg/ml.

For `CO[C@H]1C[C@@H]2CC[C@@H](C)[C@@](O)(O2)C(=O)C(=O)N2CCCC[C@H]2C(=O)O[C@H]([C@H](C)C[C@@H]2CC[C@@H](O)[C@H](OC)C2)CC(=O)[C@H](C)/C=C(\C)[C@@H](O)[C@@H](OC)C(=O)[C@H](C)C[C@H](C)/C=C/C=C/C=C/1C` [Sirolimus, sirolimus], the solubility in cyclohexane entry was “not soluble”.

(Values after patent publication US20240382656A1, “Drug Coatings for Medical Devices” (Bard Peripheral Vascular, Inc., priority 2021, published 2024).)
